Values quoted from earlier work as cited in patent US9492376B2, “Polymer-conjugated albumin hydrogels for controlled release of therapeutic agents” (TECHNION RESEARCH AND DEVELOPMENT FOUNDATION LTD., priority 2008, dated 2016).

Sequences of proteins named here, by UniProt entry; tags and fusion partners are left off. Residues count along the entry.
UniProt P02768, 25-609: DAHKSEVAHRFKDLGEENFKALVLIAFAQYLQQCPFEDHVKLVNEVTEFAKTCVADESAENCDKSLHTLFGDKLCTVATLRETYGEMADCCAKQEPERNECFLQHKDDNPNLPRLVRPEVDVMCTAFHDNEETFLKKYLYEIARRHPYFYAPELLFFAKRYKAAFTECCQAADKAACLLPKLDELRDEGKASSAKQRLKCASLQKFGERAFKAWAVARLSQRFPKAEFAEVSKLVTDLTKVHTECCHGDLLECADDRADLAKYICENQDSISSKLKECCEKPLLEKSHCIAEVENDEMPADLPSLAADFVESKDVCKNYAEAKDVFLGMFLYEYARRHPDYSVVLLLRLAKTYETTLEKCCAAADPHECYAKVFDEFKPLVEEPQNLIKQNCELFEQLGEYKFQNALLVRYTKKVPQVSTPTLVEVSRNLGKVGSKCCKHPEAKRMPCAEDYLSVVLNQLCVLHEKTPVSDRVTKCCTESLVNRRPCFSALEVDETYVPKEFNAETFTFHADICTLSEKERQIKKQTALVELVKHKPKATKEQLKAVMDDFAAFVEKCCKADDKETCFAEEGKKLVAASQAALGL

Biological target: serum albumin (Homo sapiens, UniProt P02768)
Settings: literature; cited from earlier work

## COc1ccc2cc([C@H](C)C(=O)O)ccc2c1 [Naproxen]
  Ka, binding to serum albumin: 1.6-3.7×10^6 M^−1
